Results on three molecules are retold here after publication PMC7251110.

The chains behind the UniProt entries cited, without tags or fusion partners.
UniProt Q9H8M2: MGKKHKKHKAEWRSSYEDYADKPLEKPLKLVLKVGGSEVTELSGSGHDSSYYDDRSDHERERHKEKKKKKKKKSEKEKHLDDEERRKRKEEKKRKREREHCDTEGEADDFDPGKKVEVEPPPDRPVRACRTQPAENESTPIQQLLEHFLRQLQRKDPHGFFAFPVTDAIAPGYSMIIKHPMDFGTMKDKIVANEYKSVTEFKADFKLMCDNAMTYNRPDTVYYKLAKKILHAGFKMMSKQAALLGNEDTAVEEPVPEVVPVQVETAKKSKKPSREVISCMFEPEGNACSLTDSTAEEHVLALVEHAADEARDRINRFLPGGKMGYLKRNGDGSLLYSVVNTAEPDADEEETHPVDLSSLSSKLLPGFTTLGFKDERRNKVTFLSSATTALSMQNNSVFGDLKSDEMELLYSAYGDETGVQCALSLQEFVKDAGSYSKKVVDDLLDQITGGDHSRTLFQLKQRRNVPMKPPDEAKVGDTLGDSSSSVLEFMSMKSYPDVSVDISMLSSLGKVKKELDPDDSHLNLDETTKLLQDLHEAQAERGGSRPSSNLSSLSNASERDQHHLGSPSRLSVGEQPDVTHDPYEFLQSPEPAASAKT
UniProt Q06609: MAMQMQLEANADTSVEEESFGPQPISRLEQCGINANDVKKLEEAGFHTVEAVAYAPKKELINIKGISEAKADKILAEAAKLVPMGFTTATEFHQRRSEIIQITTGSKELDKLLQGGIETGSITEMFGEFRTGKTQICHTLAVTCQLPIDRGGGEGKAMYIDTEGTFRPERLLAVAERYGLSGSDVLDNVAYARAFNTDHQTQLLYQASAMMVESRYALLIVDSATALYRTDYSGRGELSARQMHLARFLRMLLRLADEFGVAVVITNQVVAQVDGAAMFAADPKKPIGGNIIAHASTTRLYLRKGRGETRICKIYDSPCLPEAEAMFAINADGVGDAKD

Substitutions are numbered along the chain they refer to. No constants are given. Whether binding was seen depends on the method and setting. In cells and extracts the contact can be indirect. Some entries that bind do so weakly or less than the wild type. For some of these results: Sequences can lack the tags named with a protein.

For one test, the target named is T1, RAD54-HA K515R mutant (UniProt Q92698).
T1 sequence: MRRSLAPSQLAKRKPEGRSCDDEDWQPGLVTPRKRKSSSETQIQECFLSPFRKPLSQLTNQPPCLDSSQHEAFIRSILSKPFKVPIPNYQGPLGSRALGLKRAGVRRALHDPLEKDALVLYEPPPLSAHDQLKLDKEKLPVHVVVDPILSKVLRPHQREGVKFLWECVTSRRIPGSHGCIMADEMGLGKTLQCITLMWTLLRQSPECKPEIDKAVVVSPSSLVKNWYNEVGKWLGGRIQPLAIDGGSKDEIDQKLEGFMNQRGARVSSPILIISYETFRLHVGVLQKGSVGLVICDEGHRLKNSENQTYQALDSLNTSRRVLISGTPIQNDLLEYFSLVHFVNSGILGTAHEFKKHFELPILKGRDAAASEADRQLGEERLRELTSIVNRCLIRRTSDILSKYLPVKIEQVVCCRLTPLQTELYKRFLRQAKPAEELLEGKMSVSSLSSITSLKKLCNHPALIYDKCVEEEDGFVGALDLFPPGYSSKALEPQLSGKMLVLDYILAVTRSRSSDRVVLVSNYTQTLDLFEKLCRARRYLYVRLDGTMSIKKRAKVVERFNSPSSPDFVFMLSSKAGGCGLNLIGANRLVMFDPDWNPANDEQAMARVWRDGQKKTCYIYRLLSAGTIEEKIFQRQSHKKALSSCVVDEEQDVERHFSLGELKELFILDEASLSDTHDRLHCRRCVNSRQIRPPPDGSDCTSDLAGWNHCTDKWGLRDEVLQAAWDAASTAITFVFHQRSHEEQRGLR
The test can be described thus: co-IP; 293T cells transfected with RAD54-HA (WT or K515R) and the indicated plasmids (GCN5, PCAF, HDAC6, HDAC11), no IR or 10-Gy IR, lysates after 8 h, anti-HA beads.

The next test addresses T2, RAD54-HA (wild type) (UniProt Q92698).
T2 sequence: T1 sequence with R515K
The description is as above.

The target in test [1] is BRD9 (untagged, detected or precipitated with anti-BRD9 antibody) (human (endogenous in OVCAR8 and 293T)) (UniProt Q9H8M2). The experiment in a line: co-IP; endogenous; OVCAR8 cells, 10-Gy IR, lysates after 8 h, anti-BRD9 antibody on protein A-Sepharose; NETN buffer, 4 °C.
Test [2] has as its target HA-tagged BRD9 (wild type) (UniProt Q9H8M2). The experiment in a line: co-IP; 293T cells transfected with HA-BRD9 constructs, with or without 10-Gy IR, anti-HA beads, blots for RAD51 and RAD54; NETN buffer, 4 °C.
The target is the same in test [3]. The experiment in a line: co-IP; 293T cells transfected with the indicated constructs, exposed to BRD9i (I-BRD9) and 10-Gy IR, lysates after 8 h, anti-HA beads.

In the case of “BRD9 (untagged, detected or precipitated with anti-BRD9 antibody) (from UniProt Q9H8M2 1-597)”, the binding result is “no binding” with RAD54-HA K515R mutant and “binds” with RAD54-HA (wild type).
With “RAD51 (detected with anti-RAD51 antibody in cell lysates) (from UniProt Q06609 1-339)”, the binding entry in test [1] and in test [2] was “binds” in each case.

B1: RAD54 (detected with anti-RAD54 antibody in cell lysates) (protein, UniProt Q92698 1-747)
chain: T1 sequence with R515K
With B1, the binding result in test [3] was “no binding (condition: cells exposed to BRD9i (I-BRD9))”; in test [1], “binds”; in test [2], “binds”.
